# At least one structure is not confirmed: it was looked up by name or label, or the drawing left a doubt.
# Tested on: CD138+ cells and bone marrow cells (BMC)
# Experiment: Ex vivo treatment of multiple myeloma bone marrow aspirates, reverse phase protein microarray, CD138+ cells compared with bone marrow cells
# Format: cell-based, human
# Conditions: female, treatment naive multiple myeloma patient; 4 hours ex vivo; CD138+ cells vs BMC (FIG. 3)
# Source text: A workflow using protein kinase signal pathway mapping technology was developed for the ex vivo, short-term drug treatment of fresh, living human multiple myeloma (MM) bone marrow aspirate tumor cells, compared to non MM bone marrow cells for the same patient. The study sought a) to measure the signal pathway perturbations caused by the inhibitor/ligand treatment in individual baseline bone marrow aspirate samples, b) to correlate this with the susceptibility of the ex vivo living sample to apoptosis induction, within 4 hours, by a molecular targeted inhibitor which blocks this pathway, and c) to compare the relative sensitivity of tumor and non tumor bone marrow cells treated in admixture under identical conditions to identify predictive/prognostic protein-based biomarkers.
# Human bone marrow aspirates (n=20) and clinical information were collected following an IRB approved protocol from patients providing informed consent. A portion of the aspirate that was not needed for pathological diagnosis was immediately fixed for baseline analysis and the remaining sample was separated into multiple aliquots for ex vivo treatment. […]
# Reverse phase protein arrays were used to quantitatively map 60 to 75 signal pathway endpoints. The impact of each treatment was measured on the selected endpoint compared to the vehicle control. […]
compound,measurement,value
CCN(CC)CCNC(=O)c1c(C)[nH]c(/C=C2\C(=O)Nc3ccc(F)cc32)c1C [Sunitinib],death signaling endpoints,Differential effect
